For this experiment, the target named is Kismet-L (KIS-L), full-length protein from Drosophila embryo extracts (Drosophila (endogenous in embryos)) (UniProt Q9VPL9). The experiment in a line: sucrose density gradient sedimentation; extracts of 0-16 hour Drosophila embryos, 5-30% sucrose gradient in 50 mM Hepes pH 7.6, 500 mM NaCl, 0.55% Tween-20, 10% glycerol, 1 mM MgCl2, 1 mM EDTA, 4°C, 20 hours at 35,000 rpm (SW41); fractions blotted for BRM, KIS-L and ISWI.

Protein sequences, listed by entry. Tags and fused reporters are not part of them.
UniProt Q9VPL9: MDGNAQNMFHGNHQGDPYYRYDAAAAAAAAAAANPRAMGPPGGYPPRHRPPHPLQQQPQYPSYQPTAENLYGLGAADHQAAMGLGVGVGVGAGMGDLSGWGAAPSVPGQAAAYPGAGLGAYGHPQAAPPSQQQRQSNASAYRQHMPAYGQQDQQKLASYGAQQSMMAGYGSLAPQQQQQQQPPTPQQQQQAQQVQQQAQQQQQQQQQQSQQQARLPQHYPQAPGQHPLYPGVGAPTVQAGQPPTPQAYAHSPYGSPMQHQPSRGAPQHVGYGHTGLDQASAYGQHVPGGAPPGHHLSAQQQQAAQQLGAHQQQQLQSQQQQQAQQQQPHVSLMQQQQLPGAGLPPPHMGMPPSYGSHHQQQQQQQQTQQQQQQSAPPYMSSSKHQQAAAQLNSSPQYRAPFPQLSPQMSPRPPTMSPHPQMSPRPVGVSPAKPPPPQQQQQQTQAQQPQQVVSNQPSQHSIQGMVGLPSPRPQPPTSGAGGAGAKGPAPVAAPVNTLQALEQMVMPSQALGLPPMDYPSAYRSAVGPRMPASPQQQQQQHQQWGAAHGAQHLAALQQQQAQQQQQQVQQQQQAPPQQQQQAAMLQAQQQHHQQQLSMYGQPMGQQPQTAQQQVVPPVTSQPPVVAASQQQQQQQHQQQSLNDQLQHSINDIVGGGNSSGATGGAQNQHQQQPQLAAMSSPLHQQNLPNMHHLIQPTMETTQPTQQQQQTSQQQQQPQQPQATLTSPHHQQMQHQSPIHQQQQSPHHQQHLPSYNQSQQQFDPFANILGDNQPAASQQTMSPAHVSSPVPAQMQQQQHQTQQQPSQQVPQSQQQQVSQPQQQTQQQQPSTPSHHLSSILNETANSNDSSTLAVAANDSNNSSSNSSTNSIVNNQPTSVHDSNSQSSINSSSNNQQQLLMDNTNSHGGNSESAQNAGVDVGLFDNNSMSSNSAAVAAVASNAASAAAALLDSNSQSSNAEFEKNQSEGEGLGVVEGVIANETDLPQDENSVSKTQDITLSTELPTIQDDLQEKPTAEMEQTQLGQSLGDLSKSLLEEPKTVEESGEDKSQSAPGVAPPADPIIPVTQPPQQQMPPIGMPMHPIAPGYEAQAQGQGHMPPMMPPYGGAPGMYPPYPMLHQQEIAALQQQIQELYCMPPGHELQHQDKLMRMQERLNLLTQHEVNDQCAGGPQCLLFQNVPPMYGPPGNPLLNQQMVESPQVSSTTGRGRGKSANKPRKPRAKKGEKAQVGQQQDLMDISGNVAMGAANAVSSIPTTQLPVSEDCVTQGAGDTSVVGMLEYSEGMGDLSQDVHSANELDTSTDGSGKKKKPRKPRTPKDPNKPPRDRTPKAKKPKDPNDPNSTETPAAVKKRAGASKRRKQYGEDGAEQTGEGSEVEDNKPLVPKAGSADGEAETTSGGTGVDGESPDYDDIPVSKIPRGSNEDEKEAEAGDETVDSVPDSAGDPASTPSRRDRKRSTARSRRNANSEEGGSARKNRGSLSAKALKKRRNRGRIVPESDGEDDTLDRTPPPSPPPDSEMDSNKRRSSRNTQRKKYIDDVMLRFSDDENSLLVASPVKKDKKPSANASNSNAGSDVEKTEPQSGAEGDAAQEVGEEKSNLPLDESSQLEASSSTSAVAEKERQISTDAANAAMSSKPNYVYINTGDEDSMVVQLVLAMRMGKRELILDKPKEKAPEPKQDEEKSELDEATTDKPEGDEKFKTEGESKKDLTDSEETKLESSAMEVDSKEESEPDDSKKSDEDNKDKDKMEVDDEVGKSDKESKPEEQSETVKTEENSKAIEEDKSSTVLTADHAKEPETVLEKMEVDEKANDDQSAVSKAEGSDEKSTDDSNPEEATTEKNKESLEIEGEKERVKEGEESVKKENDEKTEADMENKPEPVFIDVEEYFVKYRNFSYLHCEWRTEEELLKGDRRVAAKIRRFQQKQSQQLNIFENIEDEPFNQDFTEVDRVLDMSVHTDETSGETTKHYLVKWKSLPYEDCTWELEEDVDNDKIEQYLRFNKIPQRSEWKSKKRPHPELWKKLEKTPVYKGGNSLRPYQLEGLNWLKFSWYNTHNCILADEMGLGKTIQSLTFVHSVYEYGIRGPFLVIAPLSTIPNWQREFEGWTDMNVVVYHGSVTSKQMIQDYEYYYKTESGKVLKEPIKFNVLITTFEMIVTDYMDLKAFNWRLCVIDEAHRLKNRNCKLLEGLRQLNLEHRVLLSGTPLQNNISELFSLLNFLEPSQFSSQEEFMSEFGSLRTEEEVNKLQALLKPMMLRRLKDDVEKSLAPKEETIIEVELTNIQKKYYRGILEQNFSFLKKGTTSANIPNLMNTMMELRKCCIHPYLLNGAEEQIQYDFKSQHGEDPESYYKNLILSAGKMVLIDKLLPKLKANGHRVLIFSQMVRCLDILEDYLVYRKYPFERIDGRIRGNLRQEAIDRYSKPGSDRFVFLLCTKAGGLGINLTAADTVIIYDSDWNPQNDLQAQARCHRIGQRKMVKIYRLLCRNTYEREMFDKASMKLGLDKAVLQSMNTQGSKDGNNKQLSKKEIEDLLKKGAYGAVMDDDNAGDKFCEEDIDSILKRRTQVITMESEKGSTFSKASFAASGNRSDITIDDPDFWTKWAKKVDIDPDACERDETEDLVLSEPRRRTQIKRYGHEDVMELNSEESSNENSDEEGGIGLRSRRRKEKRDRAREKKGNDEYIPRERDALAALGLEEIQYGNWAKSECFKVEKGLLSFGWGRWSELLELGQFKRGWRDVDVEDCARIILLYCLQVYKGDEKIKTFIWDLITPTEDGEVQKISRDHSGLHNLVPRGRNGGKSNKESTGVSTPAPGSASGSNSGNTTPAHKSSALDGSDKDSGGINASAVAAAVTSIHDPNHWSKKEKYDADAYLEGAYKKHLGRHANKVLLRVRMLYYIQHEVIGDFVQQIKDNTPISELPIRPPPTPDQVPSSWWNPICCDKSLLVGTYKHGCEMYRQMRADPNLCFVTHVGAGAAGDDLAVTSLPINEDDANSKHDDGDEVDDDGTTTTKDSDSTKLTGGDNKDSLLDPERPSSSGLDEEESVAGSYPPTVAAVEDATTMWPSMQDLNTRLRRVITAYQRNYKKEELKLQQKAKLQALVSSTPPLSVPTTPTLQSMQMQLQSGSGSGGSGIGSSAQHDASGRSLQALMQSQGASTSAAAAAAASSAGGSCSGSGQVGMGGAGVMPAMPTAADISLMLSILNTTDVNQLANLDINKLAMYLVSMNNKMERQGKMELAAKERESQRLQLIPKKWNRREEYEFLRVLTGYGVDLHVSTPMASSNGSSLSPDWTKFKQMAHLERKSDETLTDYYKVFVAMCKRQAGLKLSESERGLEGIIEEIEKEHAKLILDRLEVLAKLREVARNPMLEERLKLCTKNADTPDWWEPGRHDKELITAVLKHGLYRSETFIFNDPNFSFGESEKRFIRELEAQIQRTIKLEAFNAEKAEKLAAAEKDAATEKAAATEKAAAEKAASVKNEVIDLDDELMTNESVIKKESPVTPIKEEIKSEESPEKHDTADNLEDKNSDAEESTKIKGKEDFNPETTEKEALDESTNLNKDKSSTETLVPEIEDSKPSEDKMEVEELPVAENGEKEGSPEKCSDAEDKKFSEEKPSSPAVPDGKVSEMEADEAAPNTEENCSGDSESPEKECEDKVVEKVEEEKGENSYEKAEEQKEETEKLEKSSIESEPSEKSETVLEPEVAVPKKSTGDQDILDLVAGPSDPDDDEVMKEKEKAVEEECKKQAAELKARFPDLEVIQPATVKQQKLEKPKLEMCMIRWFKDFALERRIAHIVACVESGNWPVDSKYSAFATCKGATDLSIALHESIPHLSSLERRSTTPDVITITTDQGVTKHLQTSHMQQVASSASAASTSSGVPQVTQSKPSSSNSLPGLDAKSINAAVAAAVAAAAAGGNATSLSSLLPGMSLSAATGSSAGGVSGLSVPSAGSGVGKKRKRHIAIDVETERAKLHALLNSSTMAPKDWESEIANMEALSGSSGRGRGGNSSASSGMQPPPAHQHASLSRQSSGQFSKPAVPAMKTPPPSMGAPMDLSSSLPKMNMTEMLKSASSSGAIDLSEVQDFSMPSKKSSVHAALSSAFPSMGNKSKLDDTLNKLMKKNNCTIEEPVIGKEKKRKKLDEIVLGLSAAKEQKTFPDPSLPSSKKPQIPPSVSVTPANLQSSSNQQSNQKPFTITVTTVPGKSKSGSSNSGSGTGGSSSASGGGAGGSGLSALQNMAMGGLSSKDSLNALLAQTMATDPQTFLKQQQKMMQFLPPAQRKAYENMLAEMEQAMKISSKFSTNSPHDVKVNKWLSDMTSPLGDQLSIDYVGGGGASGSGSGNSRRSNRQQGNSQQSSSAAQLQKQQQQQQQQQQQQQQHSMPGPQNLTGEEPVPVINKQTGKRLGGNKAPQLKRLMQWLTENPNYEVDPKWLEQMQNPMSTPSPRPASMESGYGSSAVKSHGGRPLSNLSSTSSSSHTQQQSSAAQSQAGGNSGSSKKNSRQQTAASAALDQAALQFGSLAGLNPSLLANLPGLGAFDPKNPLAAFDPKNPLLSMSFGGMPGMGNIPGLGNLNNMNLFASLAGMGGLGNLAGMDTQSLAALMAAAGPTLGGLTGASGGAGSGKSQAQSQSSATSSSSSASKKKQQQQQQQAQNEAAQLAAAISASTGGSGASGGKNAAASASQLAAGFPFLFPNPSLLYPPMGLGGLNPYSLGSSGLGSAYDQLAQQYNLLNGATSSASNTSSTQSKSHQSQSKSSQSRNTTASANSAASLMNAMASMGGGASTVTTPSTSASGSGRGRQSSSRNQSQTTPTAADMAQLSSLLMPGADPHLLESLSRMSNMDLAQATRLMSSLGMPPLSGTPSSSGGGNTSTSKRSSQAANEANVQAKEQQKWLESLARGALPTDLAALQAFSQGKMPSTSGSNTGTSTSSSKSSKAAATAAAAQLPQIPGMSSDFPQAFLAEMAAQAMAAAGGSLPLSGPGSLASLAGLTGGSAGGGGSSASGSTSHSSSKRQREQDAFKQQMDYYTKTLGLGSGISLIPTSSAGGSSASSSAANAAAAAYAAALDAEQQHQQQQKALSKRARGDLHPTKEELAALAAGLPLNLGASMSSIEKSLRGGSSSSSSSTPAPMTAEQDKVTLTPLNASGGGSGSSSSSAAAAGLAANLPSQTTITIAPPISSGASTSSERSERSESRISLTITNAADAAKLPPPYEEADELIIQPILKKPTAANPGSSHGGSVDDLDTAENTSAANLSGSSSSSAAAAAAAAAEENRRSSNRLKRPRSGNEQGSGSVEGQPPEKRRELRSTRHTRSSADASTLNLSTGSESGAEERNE

These are yes or no findings as the source states them, for the method shown.

Turning to “Kismet-L (KIS-L), full-length protein from Drosophila embryo extracts (from UniProt Q9VPL9 1-5322)”, the binding result is “no binding”.

Values taken from article PMC2563034.
